Reference: the supplement of paper PMC4604168 (melanoma cell lines)
Some of the results follow. Many values rest on one well or one pass, so single values are uncertain.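 Imaging used 1,536-well plates; nuclei positive for cleaved PARP by antibody were divided by total DNA-stained nuclei to yield the apoptosis fraction. Doses for screening kept most cells viable, and cell lines differ markedly in resting and induced cleaved-PARP levels.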

Tested on: LOXIMVI
Assay: cleaved PARP positive nuclei fraction relative to DMSO control; melanoma cells; higher = more apoptosis
Conditions: library dose: low library concentration; 72 h

SMILES | cleaved PARP positive nuclei fraction [%]
O=C(Oc1ccc([N+](=O)[O-])cc1)N1CCC(C(O)(c2ccc3c(c2)OCO3)c2ccc3c(c2)OCO3)CC1 + O=c1cc(-c2cccc3c2Sc2ccccc2S3)oc(N2CCOCC2)c1 [KU55933] (first compound 1 µM, partner dose 1 µM) | 41.4
C/C(O)=C(\C#N)C(=O)Nc1cc(Br)ccc1Br + O=c1cc(-c2cccc3c2Sc2ccccc2S3)oc(N2CCOCC2)c1 [KU55933] (first compound 2 µM, partner dose 1 µM) | 15.1
C=CCn1c(=O)c2cnc(Nc3ccc(N4CCN(C)CC4)cc3)nc2n1-c1cccc(C(C)(C)O)n1 + Cc1cc(SCc2sc(-c3ccc(C(F)(F)F)c(F)c3)nc2C)ccc1OCC(=O)O [GW0742] (first compound 0.02 µM, partner dose 2 µM) | 59.2
C[C@]1(c2nc3c(C(N)=O)cccc3[nH]2)CCCN1 [Veliparib] + Cc1cc(SCc2sc(-c3ccc(C(F)(F)F)c(F)c3)nc2C)ccc1OCC(=O)O [GW0742] (first compound 1.4 µM, partner dose 2 µM) | 87.9
CCN(CC)CCCCNc1ncc2cc(-c3cc(OC)cc(OC)c3)c(NC(=O)NC(C)(C)C)nc2n1 + Cc1cc(SCc2sc(-c3ccc(C(F)(F)F)c(F)c3)nc2C)ccc1OCC(=O)O [GW0742] (first compound 0.1 µM, partner dose 2 µM) | 61.1
O=C(O)c1ccc(-c2c[nH]c3ncc(-c4ccccc4)cc23)cc1C1CCCC1 + Cc1cc(SCc2sc(-c3ccc(C(F)(F)F)c(F)c3)nc2C)ccc1OCC(=O)O [GW0742] (first compound 0.16 µM, partner dose 2 µM) | 52.1
NC(=O)Nc1cc(-c2cccc(F)c2)sc1C(=O)N[C@H]1CCCNC1 + O=C(Oc1ccc([N+](=O)[O-])cc1)N1CCC(C(O)(c2ccc3c(c2)OCO3)c2ccc3c(c2)OCO3)CC1 [JZL184] (first compound 0.02 µM, partner dose 1 µM) | 35.1
O=C(O)C(=O)Nc1sc2c(c1C(=O)O)CCNC2 + O=C(Oc1ccc([N+](=O)[O-])cc1)N1CCC(C(O)(c2ccc3c(c2)OCO3)c2ccc3c(c2)OCO3)CC1 [JZL184] (first compound 1.66667 µM, partner dose 1 µM) | 63.3
COc1ccc(-c2ccc3c(N4CCOCC4)nc(N4C[C@@H](C)O[C@@H](C)C4)nc3n2)cc1CO + Cc1cc(SCc2sc(-c3ccc(C(F)(F)F)c(F)c3)nc2C)ccc1OCC(=O)O [GW0742] (first compound 0.02 µM, partner dose 2 µM) | 102
O=C(CCCCCCC(=O)Nc1ccccc1)NO [vorinostat] + Cc1cc(SCc2sc(-c3ccc(C(F)(F)F)c(F)c3)nc2C)ccc1OCC(=O)O [GW0742] (first compound 0.08 µM, partner dose 2 µM) | 44.3
COC(=O)c1sccc1S(=O)(=O)Nc1ccc(Nc2ccccc2)cc1OC + O=C(Oc1ccc([N+](=O)[O-])cc1)N1CCC(C(O)(c2ccc3c(c2)OCO3)c2ccc3c(c2)OCO3)CC1 [JZL184] (first compound 1 µM, partner dose 1 µM) | 41.6
Nc1cccc2c1CN(C1CCC(=O)NC1=O)C2=O (centres undefined) [lenalidomide] + O=C(Oc1ccc([N+](=O)[O-])cc1)N1CCC(C(O)(c2ccc3c(c2)OCO3)c2ccc3c(c2)OCO3)CC1 [JZL184] (first compound 1 µM, partner dose 1 µM) | 97.5
Cn1cncc1[C@@](N)(c1ccc(Cl)cc1)c1ccc2c(c1)c(-c1cccc(Cl)c1)cc(=O)n2C [tipifarnib] + C/C(O)=C(\C#N)C(=O)Nc1cc(Br)ccc1Br [LFM-A13] (first compound 0.01 µM, partner dose 2 µM) | 81
COc1cc(Nc2ncc(F)c(Nc3ccc4c(n3)NC(=O)C(C)(C)O4)n2)cc(OC)c1OC [Tamatinib] + C/C(O)=C(\C#N)C(=O)Nc1cc(Br)ccc1Br [LFM-A13] (first compound 0.4 µM, partner dose 2 µM) | 21.8
